# Primary screen of a compound library

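Phenotypic screen: M. tuberculosis growth, cholesterol and DPPC medium, 4 days; the read-out is not stated. Compounds at 50 µM. The record gives no direction; compounds that gave an IC50 in retests scored well above the rest, so higher reads as more growth inhibition. Size under these conditions: about 69,000 compounds, about 370 of them at 50% or above in at least one test.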

Results are given as percent effect.
The controls that fix the scale are not given in the record; negative values are as filed.
Compounds were drawn at random from those tested, without regard to their results.
Two or more numbers in one place are separate tests of the same structure; such repeats can differ widely.

For CC(=O)Nc1ccc(CNCC(O)c2ccc(Cl)cc2)cc1 (stereo not given) the result was -9.68% & -15.08%. Result for CC[C@H](C)[C@H](N)C(=O)N1CC(=O)c2sc(Nc3ccc(F)cc3)nc2C1 was -2.505%. For Cc1ccccc1CN1CCN(Cc2nccn2C)CC1 the result was 7.57%. COc1ccc(OC2CCN(C(=O)c3cnc(C)s3)CC2)cc1 read 22.01%. Cc1cc(CN2CCN(C(C)c3nc(C4CC4)no3)CC2)no1 (stereo not given) read -27.41%.

CC(NCC1=Cc2cc(Cl)ccc2OC1)c1nnc2n1CCCC2 (stereo not given) gave 12.49% & 4.728%. C[C@@H](NC(=O)c1cnccn1)c1c(-c2ccc(Cl)cc2)noc1C(=O)O.Cl gave 7.739%. Result for CCc1nccn1CC(=O)Nc1cccc(N2CCCC2)c1 was -8.953% & -8.054%. CCNC(=O)N1CCc2ccc(NC(=O)NCc3ccsc3)cc21 read 12.18%. For CN(Cc1ncc[nH]1)CC1CCOc2ccccc2C1 (stereo not given) the result was 8.633%.

For O=C(NC1CC1)N1Cc2[nH]nc(COc3cccnc3)c2C1.O=C(O)C(F)(F)F the result was -20.98% & 11.29%. Cc1ccc(CN2C[C@@H](c3ccccc3)[C@@]3(CCNC3=O)C2)o1 read -24.95%. Result for O=C(O)C(F)(F)F.O=C(O)C(F)(F)F.c1cncc(CN2CCn3c(Cn4cncn4)cnc3C2)c1 was 10.05% & -5.097%. O=c1oc(-c2ccc(F)cc2)nn1CCS(=O)(=O)c1ccccc1 gave 4.196% & -1.747%. Cn1cc(C(C)(O)CNc2ccc(C(F)(F)F)cn2)cn1 (stereo not given) read -16.46%.

Result for Cc1cc(C(=O)Nc2n[nH]c(C3CC3)n2)c2c(C)nn(C)c2n1 was -9.901%. Result for CCC(CO)N(Cc1cccc(-n2cccn2)c1)Cc1cccs1 (stereo not given) was 2.996% & 2.347%. COc1ccc2c(ccn2CCC(=O)NCCCC(=O)O)c1 gave 2.306%. COCCN1CCC(C(=O)N(C)CCOc2ccc(C)cc2Cl)C1 (stereo not given) read -1.183%. For Cc1nn(C)c(C)c1C1CCCN1C(=O)c1ccc(C(N)=O)cn1 (stereo not given) the result was 0.09817%.

Result for O=C(CN1CCCCC1Cn1cncn1)NCCOc1ccccc1 (stereo not given) was 8.396%. For CNS(=O)(=O)c1ccc(C(=O)N2CCCC2c2ccncc2)o1 (stereo not given) the result was -18.8%. Cc1c(C(C)NC2CCN(C(C)C)CC2)cnn1-c1ccc(F)cc1F (stereo not given) gave -3.751%. CCN(C(=O)Nc1cc(C)on1)C(C)c1cccc(O)c1 (stereo not given) read -26.48%. [H][C@]12CC[C@]([H])(CN(Cc3[nH]cnc3C)C1)N(Cc1cc(C)no1)C2 gave 11.03%.

With CC(C)(C)CC(=O)N1[C@@H](c2ccco2)[C@@H](CO)C[C@]12CCCCNC2=O the screen gave -5.022%. CCN(C)c1ncc2c(c1C(=O)O)CCN(C1CCOC1)C2.O=C(O)C(F)(F)F.O=C(O)C(F)(F)F (stereo not given) read -13.48%. Result for c1cc(CN2CCCC2c2noc(C3CC3)n2)on1 (stereo not given) was -21.99%. CN1CCC(Cc2noc(-c3cn(Cc4ccc(F)cc4)nn3)n2)CC1 read 3.861% & 10.5%. O=C(O)C(F)(F)F.c1cnc(N2CCOCC3(CCCN(Cc4cc[nH]n4)C3)C2)nc1 (stereo not given) gave 4.832%.

Result for Fc1ccccc1CC1CCN(Cc2ccccn2)CC1 was 16.5%. With NC(=O)CN(Cc1ccc(Br)cc1)C(=O)c1cccnc1 the screen gave 7.422%. Result for O=C(O)C(F)(F)F.O=C(O)C(F)(F)F.O=C(O)C(F)(F)F.O=C(O)C(F)(F)F.[H][C@]12CC(Cn3cccn3)N(C)[C@@]1([H])CCN(Cc1ccccn1)C2 (stereo not given in full) was -4.944%. For O=C(O)C(F)(F)F.O=C(O)C(F)(F)F.[H][C@@]12COC[C@]1(C(=O)NCCc1cccs1)CN(Cc1ccccn1)C2 the result was -60.49%. Result for COc1ccccc1CCN1CCCC(CN(C)Cc2cc(C)n[nH]2)C1 (stereo not given) was 22.91%.

CCc1cc(N(C)CCC(O)c2ccccc2)n2nccc2n1 (stereo not given) gave -25.92%. For COc1ccc(CN2CCCC2)cc1Oc1cccc(C#N)n1 the result was -21.24%. Result for CC(C)C(O)CCNC(=O)Nc1cc(F)ccc1-n1cccn1 (stereo not given) was 8.874%. Cn1nc2c(cc1=O)CN(Cc1coc(-c3cccc(F)c3)n1)CC2 gave -13.43%. With CCOc1ccc(N2CCCN=C2NC(=O)c2cccc(C)c2)cc1 the screen gave -20.55%.

Result for CNC(=O)C1CCN(C(=O)CCn2cccn2)CC1 was -26.54%. Cc1cccc2[nH]c(C3CCN(C(=O)c4cccnn4)CC3)nc12 read -21.92% & -8.117%. For COc1ccccc1C(C)CC(=O)N1CC[C@H](O)C1 (stereo not given in full) the result was 11.48%. For O=C(O)C(F)(F)F.[H][C@@]12CCN(C(C)=O)C[C@]1(C(=O)NCCc1ccccn1)CCO2 the result was -9.432%.

Repeated from the top, 5 entries:

structure,percent effect
CC(=O)Nc1ccc(CNCC(O)c2ccc(Cl)cc2)cc1 (stereo not given),-9.68% & -15.08%
CC[C@H](C)[C@H](N)C(=O)N1CC(=O)c2sc(Nc3ccc(F)cc3)nc2C1,-2.505%
Cc1ccccc1CN1CCN(Cc2nccn2C)CC1,7.57%
COc1ccc(OC2CCN(C(=O)c3cnc(C)s3)CC2)cc1,22.01%
Cc1cc(CN2CCN(C(C)c3nc(C4CC4)no3)CC2)no1 (stereo not given),-27.41%

Measurements from “University of Dundee, Small-Polar-MMV Screening Library” (2021), ChEMBL document CHEMBL3988442.